These are yes or no findings as the source states them, for the method shown. Binding seen in cells or lysates may run through a third protein. Some results given as binding are weak or reduced against the parent protein; the word gives no strength.
Experiments:
[1] = molecular target: heterogeneous nuclear ribonucleoproteins (hnRNP) associated with lethal yellow protein homolog (RALY) (human (endogenous in DU145 and PC-3)) (UniProt Q9UKM9); assay: co-IP; lysates of prostate cancer cells, anti-PTBP1 or anti-RALY antibody, magnetic protein A/G beads, western blot
[2] = molecular target: polypyrimidine tract binding protein 1 (PTBP1) (human (endogenous in DU145 and PC-3)) (UniProt P26599); assay: as above

By UniProt entry, the sequences of proteins in these tests, tags left out.
UniProt Q9UKM9: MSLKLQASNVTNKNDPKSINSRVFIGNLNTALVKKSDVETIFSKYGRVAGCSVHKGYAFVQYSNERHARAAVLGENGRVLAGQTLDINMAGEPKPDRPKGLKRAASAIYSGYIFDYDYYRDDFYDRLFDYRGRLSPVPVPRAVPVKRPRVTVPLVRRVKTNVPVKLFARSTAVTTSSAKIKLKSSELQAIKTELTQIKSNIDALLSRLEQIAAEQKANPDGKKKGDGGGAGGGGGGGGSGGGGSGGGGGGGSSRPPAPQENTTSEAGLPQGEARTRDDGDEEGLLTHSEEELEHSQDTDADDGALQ
UniProt P26599: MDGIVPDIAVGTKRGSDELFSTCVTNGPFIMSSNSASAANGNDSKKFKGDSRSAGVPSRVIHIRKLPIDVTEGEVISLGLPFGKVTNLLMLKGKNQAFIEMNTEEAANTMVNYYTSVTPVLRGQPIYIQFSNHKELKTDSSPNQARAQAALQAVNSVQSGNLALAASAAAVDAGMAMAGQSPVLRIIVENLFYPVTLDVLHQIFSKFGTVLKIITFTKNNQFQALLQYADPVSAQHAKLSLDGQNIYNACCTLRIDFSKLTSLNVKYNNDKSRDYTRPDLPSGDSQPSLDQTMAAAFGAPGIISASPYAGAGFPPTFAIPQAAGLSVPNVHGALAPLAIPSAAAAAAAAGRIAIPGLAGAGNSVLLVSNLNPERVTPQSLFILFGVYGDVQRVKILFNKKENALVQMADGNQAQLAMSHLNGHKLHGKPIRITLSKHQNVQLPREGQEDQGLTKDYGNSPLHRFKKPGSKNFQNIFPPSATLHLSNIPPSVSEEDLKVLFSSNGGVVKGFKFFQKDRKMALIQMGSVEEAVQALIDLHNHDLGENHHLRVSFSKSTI

For “polypyrimidine tract binding protein 1 (PTBP1) (from UniProt P26599 1-557)”, the binding [1] was “binds”.

“heterogeneous nuclear ribonucleoproteins (hnRNP) associated with lethal yellow protein homolog (RALY) (from UniProt Q9UKM9 1-306)” was tested, and the binding [2] was “binds”.
